Measurements reported in PubChem BioAssay AID1259405 (NCATS, 2018).
Aim: 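Knock-downs that lift recombinant protein yield in hamster ovary cells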 (primary screen). System: Chinese hamster CHO-K1 ovary cells with stable secreted eGFP expression. Knock-down reagent: single siRNA against mouse genes, 0.8 pmol siRNA per well (2 µl of 400 nM stock). Time to read-out: 3 days. Measurement: 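Percent of the per-plate non-targeting control median for intracellular GFP per well by laser scanning cytometry and for cell viability by ATP luminescence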. Reading the numbers: GFP, % of control: higher = more GFP per well, higher productivity; viability (ATP), % of control: higher = more viable cells (more ATP). Rule for the call: 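a knock-down is called active if GFP reaches 120% or more of non-targeting control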.
The whole screen tested about 50,000 reagents; below is a random part of them. In the full data, about 4,000 (8%) got an active call. 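Mouse siRNA library applied to hamster cells; one well for each siRNA.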 Unmarked entries are inactive. Reagents against one gene are numbered here.

Marchf11 (membrane associated ring-CH-type finger 11) #1 → GFP, % of control: 142 (active); viability (ATP), % of control: 73.8
Marchf11 (membrane associated ring-CH-type finger 11) #2 → GFP, % of control: 60.1; viability (ATP), % of control: 75.9
Marchf11 (membrane associated ring-CH-type finger 11) #3 → GFP, % of control: 63.7; viability (ATP), % of control: 68
Celsr3 (cadherin, EGF LAG seven-pass G-type receptor 3) #1 → GFP, % of control: 73.1; viability (ATP), % of control: 69.4
Celsr3 (cadherin, EGF LAG seven-pass G-type receptor 3) #2 → GFP, % of control: 71.8; viability (ATP), % of control: 81.5
Celsr3 (cadherin, EGF LAG seven-pass G-type receptor 3) #3 → GFP, % of control: 100; viability (ATP), % of control: 94.1
Glmp (glycosylated lysosomal membrane protein) #1 → GFP, % of control: 111; viability (ATP), % of control: 84.9
Glmp (glycosylated lysosomal membrane protein) #2 → GFP, % of control: 104; viability (ATP), % of control: 75.1
Glmp (glycosylated lysosomal membrane protein) #3 → GFP, % of control: 30.4; viability (ATP), % of control: 45.3
Htr1a (5-hydroxytryptamine (serotonin) receptor 1A) #1 → GFP, % of control: 115; viability (ATP), % of control: 97.6
Htr1a (5-hydroxytryptamine (serotonin) receptor 1A) #2 → GFP, % of control: 103; viability (ATP), % of control: 76.3
Htr1a (5-hydroxytryptamine (serotonin) receptor 1A) #3 → GFP, % of control: 68.8; viability (ATP), % of control: 97.4
Gas1 (growth arrest specific 1) #1 → GFP, % of control: 52.8; viability (ATP), % of control: 52.5
Gas1 (growth arrest specific 1) #2 → GFP, % of control: 71.6; viability (ATP), % of control: 76.7
Gas1 (growth arrest specific 1) #3 → GFP, % of control: 85.4; viability (ATP), % of control: 87.7
Ppara (peroxisome proliferator activated receptor alpha) #1 → GFP, % of control: 103; viability (ATP), % of control: 74.5
Ppara (peroxisome proliferator activated receptor alpha) #2 → GFP, % of control: 81; viability (ATP), % of control: 99.9
Ppara (peroxisome proliferator activated receptor alpha) #3 → GFP, % of control: 79.9; viability (ATP), % of control: 82.2
Cyp4a10 (cytochrome P450, family 4, subfamily a, polypeptide 10) #1 → GFP, % of control: 95.9; viability (ATP), % of control: 96.9
Cyp4a10 (cytochrome P450, family 4, subfamily a, polypeptide 10) #2 → GFP, % of control: 56.2; viability (ATP), % of control: 79.3
Cyp4a10 (cytochrome P450, family 4, subfamily a, polypeptide 10) #3 → GFP, % of control: 72.8; viability (ATP), % of control: 73
Srpx2 (sushi-repeat-containing protein, X-linked 2) #1 → GFP, % of control: 57.7; viability (ATP), % of control: 43.9
Srpx2 (sushi-repeat-containing protein, X-linked 2) #2 → GFP, % of control: 105; viability (ATP), % of control: 75.6
Timd6 (T cell immunoglobulin and mucin domain containing 6) #1 → GFP, % of control: 92.8; viability (ATP), % of control: 32.1
Timd6 (T cell immunoglobulin and mucin domain containing 6) #2 → GFP, % of control: 73.9; viability (ATP), % of control: 82.5
Timd6 (T cell immunoglobulin and mucin domain containing 6) #3 → GFP, % of control: 69.3; viability (ATP), % of control: 65.1

Ordered by “GFP, % of control” (ascending): some entries from above.
Cyp4a10 (cytochrome P450, family 4, subfamily a, polypeptide 10) #2 → GFP, % of control: 56.2; viability (ATP), % of control: 79.3
Srpx2 (sushi-repeat-containing protein, X-linked 2) #1 → GFP, % of control: 57.7; viability (ATP), % of control: 43.9
Gas1 (growth arrest specific 1) #2 → GFP, % of control: 71.6; viability (ATP), % of control: 76.7
Cyp4a10 (cytochrome P450, family 4, subfamily a, polypeptide 10) #3 → GFP, % of control: 72.8; viability (ATP), % of control: 73
Ppara (peroxisome proliferator activated receptor alpha) #3 → GFP, % of control: 79.9; viability (ATP), % of control: 82.2
Ppara (peroxisome proliferator activated receptor alpha) #2 → GFP, % of control: 81; viability (ATP), % of control: 99.9
Gas1 (growth arrest specific 1) #3 → GFP, % of control: 85.4; viability (ATP), % of control: 87.7
Cyp4a10 (cytochrome P450, family 4, subfamily a, polypeptide 10) #1 → GFP, % of control: 95.9; viability (ATP), % of control: 96.9
Ppara (peroxisome proliferator activated receptor alpha) #1 → GFP, % of control: 103; viability (ATP), % of control: 74.5

The results go on.
Dhrs11 (dehydrogenase/reductase 11) #1 → GFP, % of control: 75.5; viability (ATP), % of control: 73.7
Dhrs11 (dehydrogenase/reductase 11) #2 → GFP, % of control: 105; viability (ATP), % of control: 107
Dhrs11 (dehydrogenase/reductase 11) #3 → GFP, % of control: 71.4; viability (ATP), % of control: 81.7
Eef1a1 (eukaryotic translation elongation factor 1 alpha 1) #1 → GFP, % of control: 60.8; viability (ATP), % of control: 84.2
Eef1a1 (eukaryotic translation elongation factor 1 alpha 1) #2 → GFP, % of control: 34.8; viability (ATP), % of control: 39.4
Eef1a1 (eukaryotic translation elongation factor 1 alpha 1) #3 → GFP, % of control: 92.5; viability (ATP), % of control: 34.9
Il20 (interleukin 20) #1 → GFP, % of control: 84.1; viability (ATP), % of control: 79.4
Il20 (interleukin 20) #2 → GFP, % of control: 66.8; viability (ATP), % of control: 59
Il20 (interleukin 20) #3 → GFP, % of control: 57.5; viability (ATP), % of control: 62.9
Pik3r4 (phosphoinositide-3-kinase regulatory subunit 4) → GFP, % of control: 90.7; viability (ATP), % of control: 74.9
Ksr1 (kinase suppressor of ras 1) #1 → GFP, % of control: 77.3; viability (ATP), % of control: 65.3
Ksr1 (kinase suppressor of ras 1) #2 → GFP, % of control: 88.6; viability (ATP), % of control: 67.9
Ksr1 (kinase suppressor of ras 1) #3 → GFP, % of control: 84.5; viability (ATP), % of control: 88.7
Stx17 (syntaxin 17) #1 → GFP, % of control: 74.3; viability (ATP), % of control: 61.9
Stx17 (syntaxin 17) #2 → GFP, % of control: 84.7; viability (ATP), % of control: 82.2
Stx17 (syntaxin 17) #3 → GFP, % of control: 116; viability (ATP), % of control: 68
Plcb1 (phospholipase C, beta 1) #1 → GFP, % of control: 72; viability (ATP), % of control: 85.5
Plcb1 (phospholipase C, beta 1) #2 → GFP, % of control: 125 (active); viability (ATP), % of control: 110
Plcb1 (phospholipase C, beta 1) #3 → GFP, % of control: 88.1; viability (ATP), % of control: 62.9
Shc1 (src homology 2 domain-containing transforming protein C1) #1 → GFP, % of control: 69.9; viability (ATP), % of control: 56
Shc1 (src homology 2 domain-containing transforming protein C1) #2 → GFP, % of control: 82.6; viability (ATP), % of control: 67.5
Shc1 (src homology 2 domain-containing transforming protein C1) #3 → GFP, % of control: 152 (active); viability (ATP), % of control: 118
Canx (calnexin) #1 → GFP, % of control: 64.9; viability (ATP), % of control: 63.2
Canx (calnexin) #2 → GFP, % of control: 65.5; viability (ATP), % of control: 88.6
Canx (calnexin) #3 → GFP, % of control: 49.2; viability (ATP), % of control: 68.3
Fos (Fos proto-oncogene, AP-1 transcription factor subunit) #1 → GFP, % of control: 129 (active); viability (ATP), % of control: 67.7
Fos (Fos proto-oncogene, AP-1 transcription factor subunit) #2 → GFP, % of control: 69.5; viability (ATP), % of control: 92.5
Fos (Fos proto-oncogene, AP-1 transcription factor subunit) #3 → GFP, % of control: 104; viability (ATP), % of control: 80.3
